Laboratory results from patent publication US20200157220A1.
Results are given in words; binding and its absence hold for the method and conditions named. Some results given as binding are weak or reduced against the parent protein; the word gives no strength. Tags and fused reporters may be left off the sequences shown.

Target: T1, cynomolgus monkey CTLA4-hFc (cynomolgus monkey; human) (UniProt G7PL88)
T1 sequence: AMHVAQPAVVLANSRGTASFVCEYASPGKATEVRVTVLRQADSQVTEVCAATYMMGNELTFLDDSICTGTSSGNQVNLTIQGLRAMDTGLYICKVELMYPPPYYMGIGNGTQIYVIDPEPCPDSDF
Experiment: ProteOn XPR36 (SPR)

binding: binds
B1: Monovalent F023700906 Nanobody 11F01 (L11V,A14P,Q45R,A74S,K83R,V89L,M96P,Q108L)-FLAG3-HIS6 (VHH)
VHH: EVQLVESGGGVVQPGGSLRLSCAASGGTFSFYGMGWFRQAPGKEREFVADIRTSAGRTYYADSVKGRFTISRDNSKNTVYLQMNSLRPEDTALYYCAAEPSGISGWDYWGQGTLVTVSS
